Source: US20070077628A1
Results are given in words; binding and its absence hold for the method and conditions named. In cells and extracts the contact can be indirect. Some entries that bind do so weakly or less than the wild type. Where a sequence is shown, tags or fusion partners need not be part of it.

By UniProt entry, the sequences of proteins in these tests, tags left out. Residues count along the entry.
UniProt Q99816, residues 2-390: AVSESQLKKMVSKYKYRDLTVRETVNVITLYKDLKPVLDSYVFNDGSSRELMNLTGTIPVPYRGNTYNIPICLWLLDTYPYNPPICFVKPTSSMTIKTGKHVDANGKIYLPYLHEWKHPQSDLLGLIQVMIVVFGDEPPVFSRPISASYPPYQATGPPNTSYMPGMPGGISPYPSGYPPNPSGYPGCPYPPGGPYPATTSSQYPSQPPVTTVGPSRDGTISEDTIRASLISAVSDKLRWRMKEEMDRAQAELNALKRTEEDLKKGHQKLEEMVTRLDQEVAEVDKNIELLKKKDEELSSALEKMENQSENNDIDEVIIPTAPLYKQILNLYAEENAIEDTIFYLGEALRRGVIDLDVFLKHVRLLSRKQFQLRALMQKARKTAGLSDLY

Biological target: endogenous Tsg101 of HEK-293T cells (UniProt Q99816)
Assay: co-immunoprecipitation with an antibody to endogenous Tsg101, HEK-293T cells expressing HA-hTa1

B1: HA-tagged human Ta1, wild type (enzyme, not shown: small tags and cut ends)
chain: MPLFFRKRKPSEEARKRLEYQMCLAKEAGADDILDISKCELSEIPFGAFATCKVLQKKVLIVHTNHLTSLLPKSCSLLSLATIKVLDLHDNQLTALPDDLGQLTALQVLNVERNQLMQLPRSIGNLTQLQTLNVKDNKLKELPDTVGELRSLRTLNISGNEIQRLPQMLAHVRTLEMLSLDASAMVYPPREVCGAGTAAILQFLCKESGLEYYPPSQYLLPILEQDGIENSRDSPDGPTDRFSREELEWQNRFSDYEKRKEQKMLEKLEFERRLELGQREHTQLLQQSSSQKDEILQTVKEEQSRLEQGLSEHQRHLDAERQRLQEQLKQTEQNISSRIQKLLQDNQRQKKSSEILKSLENERIRMEQLMSITQEETESLRRRDVASAMQQMLTESCKNRLIQMAYESQRQNLVQQACSSMAEMDERFQQILSWQQMDQNKAISQILQESAMQKAAFEALQVKKDLMHRQIRSQIKLIETELLQLTQLELKRKSLDTESLQEMISEQRWALSSLLQQLLKEKQQREEELREILTELEAKSETRQENYWLIQYQRLLNQKPLSLKLQEEGMERQLVALLEELSAEHYLPIFAHHRLSLDLLSQMSPGDLAKVGVSEAGLQHEILRRVQELLDAARIQPELKPPMGEVVTPTAPQEPPESVRPSAPPAELEVQASECVVCLEREAQMIFLNCGHVCCCQQCCQPLRTCPLCRQDIAQRLRIYHSS
In the case of B1, the binding is reported as “binds”.
